We go through 41 compounds from PubChem BioAssay AID2685 (National Center for Advancing Translational Sciences (NCATS), 2010).

The other results are listed elsewhere or left out. The main result of the screen is listed elsewhere. These columns were measured beside it and carry no call. Compounds called inactive in the main read-out are mostly missing here. Potencies come from curve fits of mixed quality, noted in brackets.

Usually AC50 stands for the concentration at which the activity in the assay is half-maximal.

This assay in a line: qHTS Assay for Lipid Storage Modulators in Drosophila S3 Cells.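 For cell number change: cells counted by Cell Tracker Red CMTPX staining in the red channel.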 The conditions noted are these: BODIPY lipid droplet fluorescence, 18-24 h; for cell number change: measured here: cell count max response, cells fed with added oleic acid. The method, boiled down:
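Laser-scanning cytometry quantifies lipid droplet accumulation (500–530 nm total intensity; droplet/cell object ratio) in oleic acid-fed (400 uM added) Drosophila S3 cells treated with a concentration series. 20 uM Triacsin C defined 100% inhibition.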
In general terms: Quantitative high-throughput screening tests each substance at several concentrations.

The mark [1] stands for this setting: measured here: lipid fluorescence (Fed channel) AC50, cells fed with added oleic acid.
The mark [2] stands for this setting: measured here: cell number channel AC50, cells fed with added oleic acid.

Consider `Cc1c(N=Cc2c(O)n(C)c(=O)[nH]c2=O)c(=O)n(-c2ccccc2)n1C`, for which the cell number change was -15.9%. The AC50 under setting [1] is 0.116 µM [falling, single point].

As for `CC(C)CC(NC(=O)C1CCCCC1)C(=O)N1CCC2(CC1)OCCO2` (centres undefined), the cell number change is -14.2%.

As to `O=C(NCc1cccnc1)C(Cl)(Cl)Cl`, the AC50 under setting [2] is 0.651 µM [rising, single point].

In the case of `CC(=O)OC1CCC2(/C=N/O)C(=CCC3C4CCC(=O)C4(C)CCC32)C1` (centres undefined), the cell number change stood at 5.87%.

`Cc1cc(/C=C2\C(=O)NC(=O)N(c3cccc(Br)c3)C2=O)c(C)n1C`: the cell number change was 4%. In addition, the AC50 under setting [1] is 3.66 µM [falling, single point].

As for `COc1ccc(CCN(C)C(=O)Cn2c(=O)oc3ccccc32)cc1OC`, under setting [1], the AC50 is 2.91 µM [rising, single point].

Turning to `c1csc(CN2CCNCC2)c1`, the cell number change turned out to be 81.6%. Moreover, the AC50 under setting [1] is 0.58 µM [rising, single point].

On to `Cc1cc(OC(C)C(=O)NCc2ccncc2)c2c3c(c(=O)oc2c1)CCCC3` (centres undefined), for which the cell number change is -16.5%. For the same compound, the AC50 under setting [1] was 16.4 µM [falling, partial curve, poor fit].

Take `CC(C)Nc1ccc(Nc2ccccc2)cc1`: the cell number change is -46.5%. Moreover, the AC50 under setting [2] is 32.6 µM [falling, single point].

In the case of `COC(=O)C1=C(c2ccc(F)cc2OCc2ccccc2)C[C@@H]2CC[C@H]1N2C(=O)NC1CCN(Cc2ccccc2)CC1`, the cell number change was -22.9%. For the same compound, the AC50 under setting [2] is 4.11 µM [falling, full curve, poor fit].

For the compound `CC1(C)CN(S(=O)(=O)OCC(Cl)(Cl)Cl)C(=O)N1`, the cell number change amounted to 15.2%. Further, the AC50 under setting [1] was 29.1 µM [rising, single point].

`COc1ccc(CCNCc2ccccc2F)cc1`: the cell number change was -20.2%. For the same compound, under setting [2], the AC50 is 3.26 µM [falling, full curve, poor fit]. Also, the AC50 under setting [1] was 2.91 µM [falling, full curve, poor fit].

For `N#CCCn1cc(C(=O)Nc2ccccc2Cl)c(-c2ccc(F)cc2)n1`, the cell number change was -25.2%. Further, the AC50 under setting [2] was 4.11 µM [falling, full curve, poor fit].

Turning to `CCOc1ccc(C2C(C#N)=C(N)Oc3c2c(=O)oc2ccccc32)cc1` (centres undefined), the cell number change was found to be 2.59%. Also, under setting [1], the AC50 is 0.731 µM [falling, single point].

For the compound `O=c1[nH]c(=S)[nH]c(O)c1C(c1ccccn1)c1c(O)[nH]c(=S)[nH]c1=O`, the cell number change was -48.1%.

For the compound `Cc1cccc(CN2CCN(Cc3ccc(Cl)cc3)CC2)c1`, the cell number change was -42.6%. The AC50 under setting [2] was 25.9 µM [falling, partial curve, poor fit]. The AC50 under setting [1] is 20.6 µM [falling, partial curve].

On to `CCN(CC)c1ccc(CNCCc2ccc(F)cc2)cc1`, for which the cell number change is -5.95%. In addition, under setting [2], the AC50 was 0.326 µM [falling, full curve, poor fit]. For the same compound, the AC50 under setting [1] is 0.103 µM [falling, full curve].

On to `Cc1cccn2c(NCC3CCCO3)c(C(C)C)nc12` (centres undefined), for which the cell number change was 2.69%. Moreover, the AC50 under setting [1] was 0.58 µM [rising, single point].

In the case of `O=C(/C=C/c1ccccc1)c1c(O)n(CCc2ccccc2)c(=O)[nH]c1=O`, the cell number change was determined as 6.33%.

Take `CCC(=O)N1N=C(c2c(O)n(CCc3ccccc3)c(=O)[nH]c2=O)CC1c1ccc(OC)c(OC)c1` (centres undefined): the cell number change is -12.6%. The AC50 under setting [2] was 0.259 µM [rising, single point].

Turning to `C/C(=N\NC(=O)c1ccccc1)c1c(O)n(Cc2ccccc2)c(=O)[nH]c1=O`, the cell number change was found to be 27.2%.

Consider `COC(=O)C1=C(c2ccc3ccccc3c2)C[C@@H]2CC[C@H]1N2C(=O)NC1CC1`, for which the cell number change is -35.4%. Moreover, the AC50 under setting [2] is 8.2 µM [falling, full curve, poor fit]. Also, the AC50 under setting [1] is 2.31 µM [falling, partial curve].

On to `Cc1cc(Cl)ccc1OCC(=O)N1CCN(C)CC1`, for which the cell number change amounted to 9.18%.

Regarding `CCN(CC)CCCC(C)N=C(c1ccccc1)c1c(O)n(C)c(=O)n(C)c1=O` (centres undefined), the cell number change is -1.89%. The AC50 under setting [1] was 0.00651 µM [falling, full curve, poor fit].

On to `O=C(c1cc2c(s1)-c1ccccc1OC2)N1CCC2(CC1)OCCO2`, for which the AC50 under setting [1] was 6.51 µM [rising, single point].

In the case of `O=C1CN(O)C(c2ccccc2)=c2cc(Br)ccc2=N1`, the cell number change came out at 1.35%.

Consider `C=CCn1c(O)c(N=Nc2c(C)n(C)n(-c3ccccc3)c2=O)c(=O)[nH]c1=S`, for which the AC50 under setting [1] is 11.6 µM [falling, partial curve, poor fit].

In the case of `Cc1cccc(C(=O)N(NC(=O)Oc2ccccc2)C(C)(C)C)c1`, the AC50 under setting [2] was 6.51 µM [rising, single point].

Turning to `COc1cccc(N2C(=O)/C(=C/c3ccc(C)o3)C(=O)NC2=S)c1`, the cell number change is -31%. For the same compound, the AC50 under setting [2] was 23.1 µM [falling, single point]. Also, the AC50 under setting [1] is 6.51 µM [rising, partial curve, poor fit].

`CCn1c(C)c(C(=O)NCCc2ccccc2)c2cc(OC)ccc21`: the cell number change turned out to be 20.6%.

Turning to `CC1CN(c2ccc([N+](=O)[O-])c3cccnc23)CC(C)N1` (centres undefined), the cell number change was found to be 169%.

Regarding `O=C(c1ccc2nc(-c3ccco3)c(-c3ccco3)nc2c1)N1CCC2(CC1)OCCO2`, the AC50 under setting [2] was 6.51 µM [rising, single point].

In the case of `Cc1cccc(C)c1OP(N)(=O)Oc1c(C)cccc1C`, the cell number change stood at 1.99%.

With `Nc1nonc1OCCCCOc1nonc1N`, the cell number change was -9.72%. Moreover, the half-maximal activity concentration (AC50) under setting [1] was 0.651 µM [falling, full curve, poor fit].

As to `Cc1cccc(-n2c(O)c(/C=C/C=Nc3ccccc3)c(=O)[nH]c2=O)c1`, the AC50 under setting [1] was 0.58 µM [falling, full curve].

For `CC1=C(C(=O)Nc2ccccc2)SCCO1`, under setting [1], the AC50 is 0.00461 µM [falling, full curve, poor fit].

Regarding `N=c1ccccn1Cc1ccccc1`, the cell number change was -36.5%. Moreover, under setting [2], the AC50 was 2.31 µM [falling, partial curve]. Further, the AC50 under setting [1] was 4.11 µM [falling, full curve].

Take `CN1CCC(=O)N(CCN=[N+]=[N-])CC1`: the cell number change turned out to be 31.1%. The AC50 under setting [2] was 16.4 µM [rising, partial curve, poor fit].

`Cc1ccc2occ(CN3CC4CC(C3)c3cccc(=O)n3C4)c(=O)c2c1` (centres undefined): the cell number change was -0.209%. Under setting [1], the AC50 was 18.4 µM [rising, single point].

Turning to `CC(C)[C@H](NC(=O)N1C[C@H]2C[C@@H](C1)c1cccc(=O)n1C2)C(=O)Nc1ccccc1F`, the cell number change was -18.9%. For the same compound, the AC50 under setting [1] is 0.366 µM [falling, full curve, poor fit].

For `O=P(Nc1ccccc1)(Nc1ccccc1)Oc1ccc(Cl)cc1`, the cell number change was -0.811%.
